These are yes or no findings as the source states them, for the method shown. In cells and extracts the contact can be indirect.
Target: full-length, wild-type PLK1 (Flag-, Myc- or V5-tagged) (human) (UniProt P53350)
Assay: co-IP; HEK293T cells co-transfected with differently tagged constructs; lysates incubated with Protein G Sepharose and the tag-specific antibody overnight at 4 °C, washed 3x with 20 mM Tris-HCl pH 8.2, 150 mM NaCl, 1% Triton X-100; western blot; also in cells treated with Bora siRNA

binding: no binding
B1: LAT (protein, UniProt O43561 1-262)
chain: MEEAILVPCVLGLLLLPILAMLMALCVHCHRLPGSYDSTSSDSLYPRGIQFKRPHTVAPWPPAYPPVTSYPPLSQPDLLPIPRSPQPLGGSHRTPSSRRDSDGANSVASYENEGASGIRGAQAGWGVWGPSWTRLTPVSLPPEPACEDADEDEDDYHNPGYLVVLPDSTPATSTAAPSAPALSTPGIRDSAFSMESIDDYVNVPESGESAEASLDGSREYVNVSQELHPGAAKTEPAALSSQEAEEVEEEGAPDYENLQELN

— publication PMC8755526
